Data: patent US20260242487A1
Results are given in words; binding and its absence hold for the method and conditions named. Some entries that bind do so weakly or less than the wild type.

The chains behind the UniProt entries cited, without tags or fusion partners. Where a name states a change or a piece, a line headed by the entry shows the natural chain unless it says otherwise. A line that says so, or that is headed by a name, gives the form on record, which may keep a tag or linker.
human FGFR2b expressed on cells (hFGFR2b-expressing CHOK1 cells; Ba/F3 cells expressing full-length human FGFR2b) (P21802, form named): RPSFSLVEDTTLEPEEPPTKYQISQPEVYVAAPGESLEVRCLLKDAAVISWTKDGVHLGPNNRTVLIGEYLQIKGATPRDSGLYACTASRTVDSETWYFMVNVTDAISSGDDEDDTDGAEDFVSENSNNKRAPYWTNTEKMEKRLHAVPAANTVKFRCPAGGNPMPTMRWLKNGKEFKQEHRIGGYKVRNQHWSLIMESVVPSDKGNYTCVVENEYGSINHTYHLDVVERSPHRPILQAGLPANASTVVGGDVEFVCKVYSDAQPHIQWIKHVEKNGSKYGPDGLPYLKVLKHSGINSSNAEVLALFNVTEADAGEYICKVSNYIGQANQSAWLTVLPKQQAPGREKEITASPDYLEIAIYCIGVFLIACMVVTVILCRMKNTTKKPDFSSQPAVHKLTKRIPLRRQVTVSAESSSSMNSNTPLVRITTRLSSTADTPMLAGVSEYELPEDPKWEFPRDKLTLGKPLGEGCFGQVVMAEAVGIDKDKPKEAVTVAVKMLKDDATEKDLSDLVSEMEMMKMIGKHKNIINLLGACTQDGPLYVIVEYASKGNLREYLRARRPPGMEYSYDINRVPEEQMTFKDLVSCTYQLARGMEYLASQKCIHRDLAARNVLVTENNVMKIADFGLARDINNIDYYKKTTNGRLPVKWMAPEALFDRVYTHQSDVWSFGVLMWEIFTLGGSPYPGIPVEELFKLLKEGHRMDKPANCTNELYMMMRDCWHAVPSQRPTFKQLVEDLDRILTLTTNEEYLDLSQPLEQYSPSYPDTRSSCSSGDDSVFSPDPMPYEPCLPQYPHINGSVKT
hFGFR2b-Fc (Kactus, Catalog #FGR-HM2BB) (P21802, form named): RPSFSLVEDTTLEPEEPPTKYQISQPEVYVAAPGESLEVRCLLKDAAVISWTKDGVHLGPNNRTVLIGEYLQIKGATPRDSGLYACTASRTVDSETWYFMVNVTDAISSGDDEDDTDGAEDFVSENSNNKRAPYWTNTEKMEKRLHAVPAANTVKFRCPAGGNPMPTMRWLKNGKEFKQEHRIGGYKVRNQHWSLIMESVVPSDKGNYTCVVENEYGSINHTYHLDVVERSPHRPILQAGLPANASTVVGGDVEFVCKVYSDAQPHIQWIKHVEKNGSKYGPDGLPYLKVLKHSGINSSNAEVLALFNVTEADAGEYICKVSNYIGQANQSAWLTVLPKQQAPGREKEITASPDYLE

Tests used:
[1] = molecular target: human FGFR2b expressed on cells (hFGFR2b-expressing CHOK1 cells; Ba/F3 cells expressing full-length human FGFR2b) (human) (UniProt P21802); assay: flow cytometry on cells expressing human FGFR2b
[2] = molecular target: human FGFR2b expressed on cells (hFGFR2b-expressing CHOK1 cells; Ba/F3 cells expressing full-length human FGFR2b) (human) (UniProt P21802); assay: flow cytometry on CHOK1 cells expressing hFGFR2b
FGFR2b-his (human) = FGFR2b-his (human) (UniProt P21802); assay: SPR, antibody immobilised on the chip, FGFR2b-his flowed over it [upper panel]
[3] = molecular target: human FGFR2b expressed on cells (hFGFR2b-expressing CHOK1 cells; Ba/F3 cells expressing full-length human FGFR2b) (human) (UniProt P21802); assay: flow cytometry on CHOK1 cells expressing hFGFR2b, detection with APC anti-human IgG Fc
[4] = molecular target: hFGFR2b-Fc (Kactus, Catalog #FGR-HM2BB) (human) (UniProt P21802); assay: competition ELISA on coated hFGFR2b-Fc; blocked ligand biotin-FGF10 (5 nM), detection with streptavidin-HRP
[5] = molecular target: hFGFR2b-Fc (Kactus, Catalog #FGR-HM2BB) (human) (UniProt P21802); assay: competition ELISA on coated hFGFR2b-Fc; blocked ligand human FGF7-his (20 nM), detection with HRP anti-6xHis

binding [1]: binds
binding [2]: binds
binding (FGFR2b-his (human)): binds
binding [3]: binds
binding [4]: binds
binding [5]: binds
B1: HC18 (antibody, human IgG1, kappa, V domains shown)
VH: EVQLQQSGTVLARPGASVKMSCKTSGYTFTSYWMHWVKQRPGQGLEWIGSIYPENSDTSYNQKFKGKAKLTAVTSASTAYMDLSSLTNEDSAVYYCSIYHGYDGDYWGQGTTLTVSS
VL: QIVLTQSPAIMSASPGEKVTITCSASSSVSYMYWFQQKPGTSPKLWIYSTSNLASGVPARFSGSGSGTSYSLTISRMEAEDAATYYCQQRSSYPYTFGGGTKLEIKR
